# Laboratory results: PubChem BioAssay AID504786 (Drosophila RNAi Screening Center, 2011)
# Screen: 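Fly genes required for HIF-dependent transcription when hypoxia is mimicked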 (primary screen)
# System: Drosophila S2 cells with a stable HIF luciferase reporter
# Knock-down reagent: long dsRNA against Drosophila genes, about 0.2 µg dsRNA per well of a 384-well plate
# Time to read-out: three days of knock-down, then 20 h of DFO before reading
# Conditions: desferrioxamine (DFO) at 100 µM, an iron chelator that mimics hypoxia, for 20 h
# Measured: 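Firefly luciferase driven by the mouse ldh-a hypoxia-response element, measured after 20 h of 100 µM DFO; z-scores per plate, higher means more signal lost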
# Scale: z-score: higher = stronger loss of HIF reporter signal
# The screen tested about 21,000 reagents; this is a random part of those that have a named target and a result. 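Primary screen; positive scores mean lost reporter signal, so the sign may be inverted from the usual convention.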 The numbers tell different reagents against one gene apart. Further read-outs or replicates are left out here.
predicted target,reagent,"z-score, replicate 1"
APC7,1,-0.4
alpha-Est7,1,-0.7
CG42694,1,-0.6
lectin-21Cb,1,-0.2
CG3764,1,-0.3
Gr22f,1,-0.5
Fen1,1,-0.3
Arpc2,1,0.2
CG13426,1,-0.2
dpr15,1,-0.2
dpr15,2,-0.2
dpr15,3,-0.5
Tbca,1,-0.1
RhoGAP68F,1,-0.2
Pbgs,1,-0.1
Polr1B,1,0.1
Ekar,1,-0.3
Tep4,1,-0.2
Grip75,1,-0.3
Rat1,1,0
EndoG,1,-0.4
CG34124,1,-0.4
CAH14,1,-0.3
CG34195,1,-0.3
PlexA,1,-0.3
Arl6,1,-0.3
CG16956,1,0.5

5 of these entries, set out differently:
Rat1
- z-score, replicate 1: 0

EndoG
- z-score, replicate 1: -0.4

CG34124
- z-score, replicate 1: -0.4

CAH14
- z-score, replicate 1: -0.3

CG34195
- z-score, replicate 1: -0.3

More records follow:
predicted target,reagent,"z-score, replicate 1"
CG7910,1,0.1
CG14285,1,-0.2
sturkopf,1,-0.3
rb,1,-0.3
maca,1,1.2
Alp5,1,-0.3
Ibf1,1,-0.2
cv-c,1,-0.2
cv-c,2,-0.3
cv-c,3,-0.3
cv-c,4,-0.1
cv-c,5,-0.4
cv-c,6,-0.3
Unc-76,1,-0.3
Unc-76,2,-0.1
Vps53,1,-0.3
CSN1b,1,1.6
fred,1,-0.4
fred,2,-0.4
fred,3,-0.1
fred,4,-0.4
drn,1,1.8
CG2182,1,-0.3
fw,1,-0.3
wek,1,-0.2
Qsox2,1,-0.2
CG34106,1,0.4
Cp38,1,-0.3
CG33332,1,-0.3
